# Results from publication doi:10.1101/2025.09.01.673419.
# No constants are given. Whether binding was seen depends on the method and setting. Binding calls can cover weak binding; strength is not graded here.
# Target: M. gallisepticum FtsZ, bacterial two-hybrid fusion (Mycoplasma gallisepticum) (UniProt Q7NB81)
# Assay: two-hybrid
substance,measurement,value
"M. gallisepticum FtsK, bacterial two-hybrid fusion (from UniProt Q7NC25)",binding,binds
